# Measurements: PubChem BioAssay AID1347076 (National Center for Advancing Translational Sciences (NCATS), 2019)
# Among all 400,000 compounds or so, about 13,000 (3.2%) were called active. Inconclusive means that the source gave no clear call. Such entries were picked first, then a sample of the others. Calls follow the shape of the dose curve; as a rule, active = well fitted cell-killing curve with a large enough effect; inconclusive = small, poorly fitted or top-dose-only effect, or effect the other way; inactive = flat fitted curve, though single readings scatter. Potencies of inconclusive entries are doubtful fits and often do not repeat.
# Experiment: qHTS assay for MDR1-selective chemotherapeutics: Primary screen using the drug-selected MDR subline cells KB-V1; also: nearly all actives have a fitted effect of over 60% in size
# Conditions: KB-V1 MDR cells viability, CellTiter-Glo, 72 h; activity change, negative = cytotoxicity: at 46.1 µM (top of the series)
# Procedure, shortened: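 KB-V1 cells (P-gp-expressing MDR subline of KB-3-1) in phenol-red-free DMEM with 10% FBS were exposed to library compounds over a concentration series for 72 h at 37 degrees C. Viability read by CellTiter-Glo luminescence; concentration-effect curves fitted after normalization.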
# % is scaled to controls: 0 for no effect and ±100 for the full control effect; potency is read from the fitted curve at half-maximal effect.
Structure (SMILES),Potency,"activity change, negative = cytotoxicity"
Cn1c(=O)c2c(ncn2CC(O)CNc2cccc(Cl)c2)n(C)c1=O (stereo not given),"inconclusive: 13 µM [cytotoxic, partial curve]",–
CC(=O)NCCn1c(SCc2ccccc2C)nc2ccccc2c1=O,"inconclusive: 7.94 µM [cytotoxic, partial curve, poor fit]",–
Cc1ccc(CNc2nc(-c3ccco3)nn2S(=O)(=O)c2ccc3ccccc3c2)cc1,–,inconclusive: -33.1% [cytotoxic]
O=C(NNC(=O)c1ccccc1F)c1cccc(Cl)c1,"inconclusive: 29.1 µM [cytotoxic, partial curve, poor fit]",–
O=C(COc1ccc2ccc(=O)oc2c1)Nc1ccc2c(c1)OCCO2,"inconclusive: 29.1 µM [cytotoxic, single point]",–
Cc1ccc(C2(c3ccc(C)cc3)NC(=O)N(CC(=O)NCCCN3CCCC3=O)C2=O)cc1,"inconclusive: 5.8 µM [rising, full curve, poor fit]",–
CCCCC(=O)NS(=O)(=O)c1ccc(N=NN(CC)CC)cc1,"inconclusive: 29.1 µM [rising, single point]",–
COc1ccc(S(=O)(=O)NCC2CCCN(Cc3ccc(OC)cc3F)C2)cc1 (stereo not given),–,inactive: -6.84%
CC1CC(C)CN(S(=O)(=O)c2cc3c4c(c2)CCN4C(=O)CC3)C1 (stereo not given),"inconclusive: 16.4 µM [cytotoxic, single point]",–
CCOc1ccc2oc(C(=O)OCC(=O)NC(=O)NC)c(C)c2c1,"inconclusive: 29.1 µM [rising, single point]",–
COc1ccc2ccccc2c1CNCc1ccccn1,"inconclusive: 11.6 µM [cytotoxic, partial curve, poor fit]",–
O=C(Cn1c(=O)oc2ccccc21)NCCc1ccccc1,–,inactive: 0%
O=C(CCCN1C(=O)/C(=C\c2cccc(Br)c2)SC1=S)Nc1ccc(C(=O)O)cc1,–,inactive: 8.13%
COc1ccc(NC(=O)c2ccc(NCCCN3CCOCC3)c([N+](=O)[O-])c2)cc1,active: 9.2 µM,–
CC(=O)N1CCN(C(=O)c2[nH]c(C(F)(F)F)nc2-c2ccccc2)CC1,–,inactive: 6.04%
O=C(N/N=C/c1sc(N2CCOCC2)nc1-c1ccccc1)c1cccc(S(=O)(=O)N2CCCC2)c1,"inconclusive: 3.66 µM [cytotoxic, full curve]",–
c1ccc(COc2cccc(-c3cc4nc(NCc5ccc6c(c5)OCO6)ccn4n3)c2)cc1,–,inactive: -19.9%
CCOc1ccc(C(=O)Nc2nncs2)cc1OCC,–,inactive: -20.1%
CCOC(=O)N1CCN(C(=O)CSCC(=O)N=c2sc3ccccc3n2C)CC1,"inconclusive: 9.2 µM [cytotoxic, partial curve]",–
O=C(Nc1nc(-c2cccs2)cs1)C1=COCCO1,"inconclusive: 23.1 µM [cytotoxic, single point]",–
Cc1ccc2nc(Cl)c3cc(C(=O)N4CCCCC4C)sc3c2c1 (stereo not given),–,inactive: 2.04%
O=c1[nH]c(CN2CCOCC2)nc2cc(Cl)ccc12,–,inactive: -7.03%
Cc1c(Cl)cccc1NC(=S)N(Cc1cccnc1)Cc1ccccc1Cl,"inconclusive: 18.4 µM [cytotoxic, single point]",–

Structure (SMILES),Potency,"activity change, negative = cytotoxicity"
NC(=O)C1CCN(CC(=O)N2N=CCC2c2ccccc2)CC1 (stereo not given),"inconclusive: 29.1 µM [rising, single point]",–
CC(=O)c1c(O)cc(C)n(Cc2ccccc2)c1=O,"inconclusive: 20.6 µM [cytotoxic, single point]",–
COc1ccccc1OCc1csc(N)n1,"inconclusive: 0.58 µM [rising, partial curve, poor fit]",–
CSc1sc(C(=O)N2CCCCC2)c(-c2cccs2)c1C#N,"inconclusive: 20.6 µM [cytotoxic, single point]",–
Cc1ccc(C(NC(=O)C(C)C)c2cc([N+](=O)[O-])c3cccnc3c2O)cc1 (stereo not given),"inconclusive: 13 µM [cytotoxic, partial curve]",–
CC1(C)N=C(c2ccccc2)C(=O)N1,"inconclusive: 10.3 µM [rising, partial curve, poor fit]",–
O=C(CSc1ccc(-c2cccs2)nn1)N1CCCCC1,–,inactive: -16.8%
COc1ccc(Cl)cc1NC(=O)CN1C(=O)C(C)(C)c2cc(S(=O)(=O)N3CCCCC3)ccc21,–,inactive: -23.5%
Cc1ccc(NC(=O)c2cc(-c3cc(Cl)ccc3O)n[nH]2)cc1C,"inconclusive: 29.1 µM [rising, single point]",–
O=C(N=C1SC2CS(=O)(=O)CC2N1c1ccc(Cl)c(Cl)c1)C1CCCO1 (stereo not given),"inconclusive: 18.4 µM [rising, single point]",–
CSc1cccc(N2CC(C(=O)NCCC3=CCCCC3)CC2=O)c1 (stereo not given),–,inactive: -29.8%
Cc1cc(N2CCN(C)CC2)nc2ccc(NC(=O)Nc3cccc(Cl)c3)cc12,–,inactive: -7.42%
Cc1c(C)n(Cc2ccccc2)c2ncnc(Cl)c12,–,inactive: 14.1%
COc1ccc(S(=O)(=O)N(Cc2cccs2)C2CCCC2)cc1,–,inactive: -24.5%
O=C(COc1ccc(S(=O)(=O)N2CCOCC2)cc1)NC1CCCCC1,"inconclusive: 20.6 µM [rising, single point]",–
O=C(O)c1ccc(N2C(=O)CC(N3CCN(c4ccc(Cl)cc4)CC3)C2=O)cc1 (stereo not given),"inconclusive: 29.1 µM [rising, single point]",–
CCOC(=O)c1cc(NC(=O)CC(C)(C)CC(=O)O)ccc1N1CCCCC1,–,inactive: -3.95%
Cc1snc(SCC(=O)N/N=C(\N)COc2ccc(F)cc2)c1C#N,"inconclusive: 23.1 µM [cytotoxic, partial curve]",–
COC(=O)[C@@]12C[C@@H](CC(=O)N3CCCC3)C(=O)N(Cc3cccc4ccccc34)C1=CCC(C)(C)C2,active: 13 µM,–
CCOc1ccc(Nc2c(S(=O)(=O)c3ccc(Cl)cc3)cnc3ccc(OCC)cc23)cc1,"inconclusive: 9.2 µM [cytotoxic, partial curve, poor fit]",–
CCn1cc(C(=O)N2CCc3ccccc32)c(=O)c2cc(S(=O)(=O)N(C)C3CCCCC3)ccc21,"inconclusive: 5.17 µM [cytotoxic, partial curve]",–
C[C@@H](CSc1ccc(Br)cc1)CN1CC[C@H](O)CCC1=O,"inconclusive: 16.4 µM [cytotoxic, single point]",–

# 4 compounds picked at random from those above, as already listed:
Structure (SMILES),Potency,"activity change, negative = cytotoxicity"
O=C(N=C1SC2CS(=O)(=O)CC2N1c1ccc(Cl)c(Cl)c1)C1CCCO1 (stereo not given),"inconclusive: 18.4 µM [rising, single point]",–
Cc1snc(SCC(=O)N/N=C(\N)COc2ccc(F)cc2)c1C#N,"inconclusive: 23.1 µM [cytotoxic, partial curve]",–
Cc1c(C)n(Cc2ccccc2)c2ncnc(Cl)c12,–,inactive: 14.1%
CCn1cc(C(=O)N2CCc3ccccc32)c(=O)c2cc(S(=O)(=O)N(C)C3CCCCC3)ccc21,"inconclusive: 5.17 µM [cytotoxic, partial curve]",–
